PubChem BioAssay AID1159578 – Peter MacCallum Cancer Centre | 2015

- Screen: 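Genome-wide hunt for genes controlling movement of lymphatic endothelial cells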 (primary screen)
- System: human lymphatic endothelial cells
- Reagents: siRNA pool against human genes, 40 nM
- Duration: 48 h after transfection
- Measurement: 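High-content imaging of dye-stained cells in a scratch assay measures filled wound area and nuclei per well; duplicate means given as ratio to mock and robust z-score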
- Reading the numbers: migration robust z-score: higher = faster migration into the scratch; nuclei per well: higher = more cells in the well
- Call rule: 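Migration changed when robust z exceeds 2 or falls below -2 and mean nuclei number is at least 3300; otherwise not called changed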
- Calls: active = migration changed; inactive = no migration change, or too few cells
Here is a random part of about 18,000 reagents tested. In the full data, about 1,030 (5.7%) got an active call. 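Inactive calls also include pools with fewer than 3300 nuclei, whose migration was not assessed.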 Raw values vary from plate to plate and are shown uncorrected. Not all columns of the deposit are shown.

| Target gene | migration robust z-score | migration class with cell-count check | nuclei per well, duplicate mean | activity call |
| --- | --- | --- | --- | --- |
| DYNLT5 (dynein light chain Tctex-type family member 5) | -0.26 | migration z between -2 and 2; enough cells | 4653 | inactive |
| RGS5 (regulator of G protein signaling 5) | 0.14 | migration z between -2 and 2; enough cells | 4711 | inactive |
| METRN (meteorin, glial cell differentiation regulator) | 0.22 | migration z between -2 and 2; enough cells | 6204 | inactive |
| SCP2D1 (SCP2 sterol binding domain containing 1) | -0.02 | migration z between -2 and 2; enough cells | 4796 | inactive |
| OR5D13 (olfactory receptor family 5 subfamily D member 13) | -0.88 | migration z between -2 and 2; enough cells | 4607 | inactive |
| LPIN1 (lipin 1) | 0.76 | migration z between -2 and 2; enough cells | 5186 | inactive |
| ST20-AS1 (ST20 antisense RNA 1) | -0.14 | migration z between -2 and 2; enough cells | 6286 | inactive |
| NTRK3 (neurotrophic receptor tyrosine kinase 3) | -0.94 | migration z between -2 and 2; enough cells | 4714 | inactive |
| SPATA31A3 (SPATA31 subfamily A member 3) | 0.22 | migration z between -2 and 2; enough cells | 5239 | inactive |
| FZD5 (frizzled class receptor 5) | 1.06 | migration z between -2 and 2; enough cells | 5822 | inactive |
| GZMM (granzyme M) | -3.07 | under 3300 nuclei; migration not judged | 1942 | inactive |
| SYAP1 (synapse associated protein 1) | -1.03 | migration z between -2 and 2; enough cells | 5151 | inactive |
| OR10T2 (olfactory receptor family 10 subfamily T member 2) | -1.21 | migration z between -2 and 2; enough cells | 5818 | inactive |
| PLA2G4E (phospholipase A2 group IVE) | -1.58 | migration z between -2 and 2; enough cells | 5149 | inactive |
| PNPLA5 (patatin like domain 5, triacylglycerol lipase) | 0.57 | migration z between -2 and 2; enough cells | 5916 | inactive |
| CNNM4 | 0.46 | migration z between -2 and 2; enough cells | 6933 | inactive |
| MLX (MAX dimerization protein MLX) | -0.65 | migration z between -2 and 2; enough cells | 5876 | inactive |
| OR6C74 (olfactory receptor family 6 subfamily C member 74) | 1.14 | migration z between -2 and 2; enough cells | 5612 | inactive |
| TACC2 (transforming acidic coiled-coil containing protein 2) | -0.39 | migration z between -2 and 2; enough cells | 5482 | inactive |
| IFT27 (intraflagellar transport 27) | -0.05 | migration z between -2 and 2; enough cells | 6607 | inactive |
| DPH5 (diphthamide biosynthesis 5) | -1.61 | migration z between -2 and 2; enough cells | 5594 | inactive |
| RETREG3 (reticulophagy regulator family member 3) | 2.2 | migration z above 2; enough cells | 6274 | active |
| LRRC74A (leucine rich repeat containing 74A) | 0.22 | migration z between -2 and 2; enough cells | 6330 | inactive |
| VIPR2 (vasoactive intestinal peptide receptor 2) | 0.08 | migration z between -2 and 2; enough cells | 5482 | inactive |
| ALKBH1 (alkB homolog 1, histone H2A dioxygenase) | 0.08 | migration z between -2 and 2; enough cells | 6683 | inactive |
| ACTL8 (actin like 8) | -2.66 | migration z below -2; enough cells | 5694 | active |
| MAP4K4 (mitogen-activated protein kinase kinase kinase kinase 4) | 0.44 | migration z between -2 and 2; enough cells | 5118 | inactive |
| DHX29 (DExH-box helicase 29) | -0.42 | migration z between -2 and 2; enough cells | 5081 | inactive |
| OR5K2 (olfactory receptor family 5 subfamily K member 2) | 0.94 | migration z between -2 and 2; enough cells | 5402 | inactive |
| SMCO1 (single-pass membrane protein with coiled-coil domains 1) | 0.32 | migration z between -2 and 2; enough cells | 7228 | inactive |
| TRIM40 (tripartite motif containing 40) | -0.55 | migration z between -2 and 2; enough cells | 4998 | inactive |
| MAP3K2 (mitogen-activated protein kinase kinase kinase 2) | 0.31 | migration z between -2 and 2; enough cells | 6476 | inactive |
| NLRC5 (NLR family CARD domain containing 5) | 0.42 | migration z between -2 and 2; enough cells | 5720 | inactive |
| DGCR6L (DiGeorge syndrome critical region gene 6 like) | -0.46 | migration z between -2 and 2; enough cells | 4452 | inactive |
| HEY1 | -0.39 | migration z between -2 and 2; enough cells | 4547 | inactive |
| PHKA2 (phosphorylase kinase regulatory subunit alpha 2) | -1.63 | migration z between -2 and 2; enough cells | 5667 | inactive |
| CENPE (centromere protein E) | 0.34 | migration z between -2 and 2; enough cells | 4984 | inactive |
| SACM1L (SAC1 like phosphatidylinositide phosphatase) | -0.75 | migration z between -2 and 2; enough cells | 5366 | inactive |
| TYK2 (tyrosine kinase 2) | -0.36 | migration z between -2 and 2; enough cells | 5510 | inactive |
| CT45A2 (cancer/testis antigen family 45 member A2) | 0.79 | migration z between -2 and 2; enough cells | 5588 | inactive |
| HRC (histidine rich calcium binding protein) | 0.99 | migration z between -2 and 2; enough cells | 5365 | inactive |
| MAPK3 (mitogen-activated protein kinase 3) | -1.58 | under 3300 nuclei; migration not judged | 2746 | inactive |
| LINC02915 (long independently transcribed non-coding RNA 2915) | -0.52 | migration z between -2 and 2; enough cells | 5350 | inactive |
| ATP12A (ATPase H+/K+ transporting non-gastric alpha2 subunit) | 1.64 | migration z between -2 and 2; enough cells | 7148 | inactive |
| HSCB (HscB mitochondrial iron-sulfur cluster cochaperone) | -0.7 | migration z between -2 and 2; enough cells | 6008 | inactive |
| ARL9 (ARF like GTPase 9) | 1.7 | migration z between -2 and 2; enough cells | 5346 | inactive |
| PDLIM4 (PDZ and LIM domain 4) | 0.72 | migration z between -2 and 2; enough cells | 6965 | inactive |
| SPRED2 (sprouty related EVH1 domain containing 2) | 0.62 | migration z between -2 and 2; enough cells | 5795 | inactive |
| APOC1 (apolipoprotein C1) | 1.04 | migration z between -2 and 2; enough cells | 5420 | inactive |
| GPS2 (G protein pathway suppressor 2) | -0.47 | migration z between -2 and 2; enough cells | 6219 | inactive |
| CDK10 (cyclin dependent kinase 10) | -5.37 | under 3300 nuclei; migration not judged | 1957 | inactive |
| C14orf93 (chromosome 14 open reading frame 93) | -0.14 | migration z between -2 and 2; enough cells | 6239 | inactive |
| GATA5 (GATA binding protein 5) | 0.5 | migration z between -2 and 2; enough cells | 5554 | inactive |
| SLC38A5 | -0.19 | migration z between -2 and 2; enough cells | 5753 | inactive |
| CBR3 (carbonyl reductase 3) | -0.34 | migration z between -2 and 2; enough cells | 5954 | inactive |
| PCDHB1 (protocadherin beta 1) | -0.07 | migration z between -2 and 2; enough cells | 6911 | inactive |
| FBXL22 (F-box and leucine rich repeat protein 22) | 0.62 | migration z between -2 and 2; enough cells | 5724 | inactive |

Targets above whose target name begins with T or t:
| Target gene | migration robust z-score | migration class with cell-count check | nuclei per well, duplicate mean | activity call |
| --- | --- | --- | --- | --- |
| TACC2 (transforming acidic coiled-coil containing protein 2) | -0.39 | migration z between -2 and 2; enough cells | 5482 | inactive |
| TRIM40 (tripartite motif containing 40) | -0.55 | migration z between -2 and 2; enough cells | 4998 | inactive |
| TYK2 (tyrosine kinase 2) | -0.36 | migration z between -2 and 2; enough cells | 5510 | inactive |
